Legend:
[1] = tested on: Chinese hamster ovary (CHO) cells; assay: Fluorescence lifetime imaging (FLIM) of uptake and intracellular concentration in CHO cells; settings: 2PE 628 nm
Experimental: (§1) Both HeLa and Chinese hamster ovary (CHO) cells were obtained from the European Collection of Cell Cultures. HeLa cells were cultured in MEM medium (Gibco) containing 10% foetal calf serum, penicillin (100 units/mL), streptomycin (100 μg/mL) and glutamine (2 mM). CHO cells were cultured in DMEM (Gibco) with the same additions as for the HeLa cells. For microscopy the adherent cell cultures were grown in 35 mm diameter glass-bottom culture dishes with optical quality glass (MatTek Corporation) and incubated at 37° C. in a humidified atmosphere containing 5% CO2. Human umbilical vein endothelial cells (HUVECs) were obtained from TCS Cellworks. HUVECs were sub-cultured in basal medium (TCS Cellworks) supplemented with antibiotic supplement/amphotericin-B, following the detailed guidelines provided by TCS Cellworks.
The fluorescence lifetime imaging system with multiphoton excitation employed lasers for multiphoton excitation consisting of a Ti:Sapphire laser, tuneable between 700 and 1000 nm and providing ca 180 fs pulses at 76 MHz, and an optical parametric oscillator (OPO) pumped by a second Ti:Sapphire laser source. […] Using the various microscope ports it was possible to record the fluorescence in a number of ways. The fluorescence signal at one port was relayed to a spectrometer (Acton 275) and CCD setup (Andor iDUS) so that emission spectra and intensities could be recorded. Alternatively the fluorescence signal could be routed via a second port to a time-correlated single photon counting (TCSPC) system (Becker and Hickl SPC-830) allowing fluorescence lifetime measurements and fluorescence lifetime imaging (FLIM), using Becker and Hickl software (SPCImage) for analysis. In FLIM mode the fluorescence was isolated by a suitable narrowband interference filter (400IU25 together with BG3 (Comar)). […] Two photon cross sections were determined using a reference fluorophore as a two photon standard as described by Mathai et al., employing published values of the two-photon cross section for 9-chloroanthracene. […]

HeLa cells = assay: Fluorescence lifetime imaging (FLIM) of uptake and intracellular concentration in HeLa cells; settings: 2PE 628 nm
Experimental: as §1, with “HUVECs were sub-cultured in basal medium (TCS Cellworks) supplemented with antibiotic supplement/amphotericin-B, following the detailed guidelines provided by TCS Cellworks.” left out
The fluorescence lifetime imaging system with multiphoton excitation employed lasers for multiphoton excitation consisting of a Ti:Sapphire laser, tuneable between 700 and 1000 nm and providing ca 180 fs pulses at 76 MHz, and an optical parametric oscillator (OPO) pumped by a second Ti:Sapphire laser source. […] Using the various microscope ports it was possible to record the fluorescence in a number of ways. The fluorescence signal at one port was relayed to a spectrometer (Acton 275) and CCD setup (Andor iDUS) so that emission spectra and intensities could be recorded. […] In FLIM mode the fluorescence was isolated by a suitable narrowband interference filter (400IU25 together with BG3 (Comar)). […]

[2] = tested on: human umbilical vein endothelial cells (HUVECs); assay: Fluorescence lifetime imaging (FLIM) of uptake and intracellular concentration in HUVECs; format: cell-based; settings: HUVEC
Excerpt: Cell images were overlaid using Adobe Photoshop CS3.
Z-CA4 and analogues exert their anticancer activity by preventing the process of angiogenesis in which a growing tumour is supplied with new vasculature for the supply of nutrients via the bloodstream. We have therefore studied interactions between combretastatins and cultured HUVECs. […] Nevertheless it was possible to obtain images of cells after uptake upon E-combretastatin addition to the supporting medium at relatively low concentrations. […] In addition there are some punctate structures apparent in the images that appear to correlate with lipid droplets identified by Nile Red staining of the same cell. At 37° C. exact co-localization of the sequential images of combretastatin fluorescence and Nile Red labelled lipid droplets, obtained using the two different imaging systems attached to the microscope, is not possible because of the Brownian motion and the occasional rapid saltation of these structures that occur as a result of their transport upon the cellular microtubule network. The fluorescence lifetime distribution of intracellular E-CA4F observed in this cell simultaneously labelled with Nile Red peaks at ˜950 ps. […] The long lifetime of E-CA4F fluorescence in the HUVEC cell indicates a viscous environment for E-CA4F within the cell which is consistent with a lipidic location such as a membrane or lipid droplet. […]

SMILES: COc1ccc(/C=C/c2cc(OC)c(OC)c(OC)c2)cc1N [E-ACA, (E)-1-(3′-Amino-4′-methoxyphenyl)-2-(3″,4″,5″-trimethoxyphenyl)ethene]
- Peak (maximum) in the intracellular fluorescence lifetime distribution [1]: 2.15 ns

SMILES: COc1ccc(/C=C/c2cc(OC)c(OC)c(OC)c2)cc1O [E-CA4, (E)-1-(3′,4′,5′-Trimethoxyphenyl)-2-(4″-methoxy-3″-hydroxy-phenyl)ethene]
- Peak in the intracellular fluorescence lifetime distribution (HeLa cells; 100 μmol dm^−3 in medium): 900 ps

SMILES: COc1ccc(/C=C/c2cc(OC)c(OC)c(OC)c2)cc1F [E-CA4F, (E)-1-(3′,4′,5′-trimethoxyphenyl)-2-(3″-fluoro-4″-methoxyphenyl)ethene]
- Peak in the intracellular fluorescence lifetime distribution (HeLa cells; 50 μmol dm^−3 in medium): 1.1 ns
- Peak of intracellular fluorescence lifetime distribution ([2]; 5 μM, 37° C., 60 min, simultaneously labelled with Nile Red): ~950 ps
- Peak of intracellular fluorescence lifetime distribution ([2]; absence of Nile Red): 1100 ps
- Peak (maximum) in the intracellular fluorescence lifetime distribution [1]: very similar lifetime distribution

SMILES: COc1cc(/C=C/c2ccc(N(C)C)cc2)cc(OC)c1OC [E-DMAC, (E)-1-(3′,4′,5′-Trimethoxyphenyl)-2-(4″-dimethylamino-phenyl)ethene]
- Peak (maximum) in the intracellular fluorescence lifetime distribution [1]: 1.07 ns

Reference: US20150359884A1, “MULTI-PHOTON ISOMERISATION OF COMBRETASTATINS AND THEIR USE IN THERAPY” (priority 2011, published 2015)
